The list does not hold the whole screen: it is rich in T/C values a quarter to a half above the control, in often repeated tests (any T/C) and in doses without a T/C. Other doses and runs of a compound stand elsewhere. T/C gives the treated animals as a percentage of the vehicle group. Schedule codes are those of the source, read here as Q, the interval in days (D) or hours (H), X, the number of doses. Some T/C values carry the count of animals alive at the toxicity check (mostly the fifth day); without a count, all were alive then. Some doses have a count of surviving animals in place of a T/C: the source holds a T/C of zero for them, seemingly a mark for toxic or unscored doses. Survivors were counted at the toxicity check, usually on the fifth day, unless a day is given; later deaths do not show. Some entries were tested several times; the results are listed from low to high.
System: CD8F1 mice, subcutaneous mammary adenocarcinoma, T/C%
Assay: NCI In Vivo Anticancer Drug Screen. Data for tumor model Mammary Adenocarcinoma CD8F1 (subcutaneous) in CD8F1
Details: higher T/C = larger tumour
How it was run: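 Compound-treated versus vehicle-treated mice with transplantable tumors; survival or tumor size compared as T/C.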

In the case of ClCCCN1CCN(CCCl)CC1, the survivor count (T/C endpoint: median tumor weight change, dose: 66.7 mg/kg/injection, schedule: Q01DX001 (ip), vehicle: saline) is reported as 0 of 10 on day 32, the survivor count (T/C endpoint: median tumor weight change, dose: 80.0 mg/kg/injection, schedule: Q01DX001 (ip), vehicle: saline) is reported as 0 of 10 on day 24 and 0 of 10 on day 25 and the survivor count (T/C endpoint: median tumor weight change, dose: 111.0 mg/kg/injection, schedule: Q01DX001 (ip), vehicle: saline) is reported as 0 of 10 on day 32. The survivor count (T/C endpoint: median tumor weight change, dose: 160.0 mg/kg/injection, schedule: Q01DX001 (ip), vehicle: saline) was 0 of 10 on day 25.
With COc1cc(O)c2c(O)c3c(c4c2c1[C@]1(C4)C(C)=CCCC1(C)C)[C@H](O)[C@@]1(O)CC(=O)C(C(N)=O)=C(O)[C@@]1(O)C3=O the survivor count (T/C endpoint: median tumor weight (est.), dose: 100.0 mg/kg/injection, schedule: Q07DX005 (ip), vehicle: saline with Tween-80) was 0 of 10 on day 30, the survivor count (T/C endpoint: median tumor weight (est.), dose: 200.0 mg/kg/injection, schedule: Q07DX005 (ip), vehicle: saline with Tween-80) was 0 of 10 on day 30 and the survivor count (T/C endpoint: median tumor weight (est.), dose: 200.0 mg/kg/injection, schedule: Q07DX005 (ip), vehicle: saline) was 0 of 10 on day 30.
In the case of CNC(=O)c1cccc2c(Nc3ccc(NS(C)(=O)=O)cc3OC)c3cccc(C)c3nc12, the survivor count (T/C endpoint: median tumor weight change, dose: 60.0 mg/kg/injection, schedule: Q01DX001 (ip), vehicle: water) is reported as 6 of 10 on day 28, the survivor count (T/C endpoint: median tumor weight change, dose: 120.0 mg/kg/injection, schedule: Q01DX001 (ip), vehicle: other) is reported as 0 of 10 on day 27 and the survivor count (T/C endpoint: median tumor weight change, dose: 120.0 mg/kg/injection, schedule: Q01DX001 (ip), vehicle: water) is reported as 0 of 10 on day 28 and 1 of 10 on day 28. The survivor count (T/C endpoint: median tumor weight change, dose: 125.0 mg/kg/injection, schedule: Q01DX001 (ip), vehicle: water) was 0 of 10 on day 31, the survivor count (T/C endpoint: median tumor weight change, dose: 250.0 mg/kg/injection, schedule: Q01DX001 (ip), vehicle: water) was 0 of 10 on day 31 and the survivor count (T/C endpoint: median tumor weight change, dose: 500.0 mg/kg/injection, schedule: Q01DX001 (ip), vehicle: water) was 0 of 10 on day 31. The survivor count (T/C endpoint: median tumor weight change, dose: 1000.0 mg/kg/injection, schedule: Q01DX001 (ip), vehicle: water) was 0 of 10 on day 31.
For Nc1ncnc2c1ncn2C1OC(CO)CC1O (configuration not stated), the T/C (T/C endpoint: median tumor weight (est.), dose: 150.0 mg/kg/injection, schedule: Q07DX005 (ip), vehicle: Klucel (hydroxypropylcellulose) (HPC), evaluated on day 30) was 125 % of control [9 of 10 alive on day 30] and the survivor count (T/C endpoint: median tumor weight (est.), dose: 300.0 mg/kg/injection, schedule: Q07DX005 (ip), vehicle: Klucel (hydroxypropylcellulose) (HPC)) was 3 of 10 on day 30.
In the case of O=C1NC(=O)C2C3C=CC(C12)C1C2C(=O)NC(=O)C2C31 (configuration not stated), the T/C (T/C endpoint: median tumor weight change, dose: 31.25 mg/kg/injection, schedule: Q01DX001 (ip), vehicle: saline with Tween-80, evaluated on day 29) is reported as 140 % of control, the survivor count (T/C endpoint: median tumor weight change, dose: 83.3 mg/kg/injection, schedule: Q01DX005 (ip), vehicle: water) is reported as 3 of 10 on day 31 and the survivor count (T/C endpoint: median tumor weight change, dose: 150.0 mg/kg/injection, schedule: Q01DX001 (ip), vehicle: saline) is reported as 1 of 10 on day 25. The survivor count (T/C endpoint: median tumor weight change, dose: 250.0 mg/kg/injection, schedule: Q01DX001 (ip), vehicle: saline with Tween-80) was 5 of 10 on day 29, the survivor count (T/C endpoint: median tumor weight change, dose: 250.0 mg/kg/injection, schedule: Q01DX001 (ip), vehicle: saline) was 0 of 10 on day 25 and the survivor count (T/C endpoint: median tumor weight change, dose: 416.7 mg/kg/injection, schedule: Q01DX001 (ip), vehicle: saline) was 0 of 10 on day 25. For the same compound, the survivor count (T/C endpoint: median tumor weight change, dose: 500.0 mg/kg/injection, schedule: Q01DX001 (ip), vehicle: saline with Tween-80) was 0 of 10 on day 29 and 1 of 10 on day 34, the survivor count (T/C endpoint: median tumor weight change, dose: 1000.0 mg/kg/injection, schedule: Q01DX001 (ip), vehicle: saline with Tween-80) was 0 of 10 on day 34 and the survivor count (T/C endpoint: median tumor weight change, dose: 2000.0 mg/kg/injection, schedule: Q01DX001 (ip), vehicle: saline with Tween-80) was 0 of 10 on day 34.
For Cc1c2cc[n+](C)cc2c(C)c2c1[nH]c1ccc(O)cc12, the survivor count (T/C endpoint: median tumor weight change, dose: 5.0 mg/kg/injection, schedule: Q01DX001 (ip), vehicle: saline) was 3 of 10 on day 27 and the survivor count (T/C endpoint: median tumor weight change, dose: 10.0 mg/kg/injection, schedule: Q01DX001 (ip), vehicle: saline) was 0 of 10 on day 27.

From PubChem BioAssay AID220 (DTP/NCI, 2004)
